According to PubChem BioAssay AID248 (DTP/NCI, 2004):
The list does not hold the whole screen: it covers a few groups of compounds. Other doses and runs of a compound may be missing. T/C: endpoint of the treated group in % of that of the vehicle group. Some doses have a count of surviving animals in place of a T/C: the source holds a T/C of zero for them, seemingly a mark for toxic or unscored doses. Some doses without a T/C left all or most animals alive at the check, yet need not have been tolerated: the source hardly ever lists a survival T/C far under the control, and the zero likely stands for such cases as well. Survivors were counted at the toxicity check, usually on the fifth day, unless a day is given; later deaths do not show. Schedule codes are those of the source, read here as Q, the interval in days (D) or hours (H), X, the number of doses. Where survival is the endpoint, this PubChem deposit counts one and a half times the control or more as active, and values a quarter to a half above the control carry no call in these data; other NCI protocols may use other cut-offs. Some T/C values are followed by the survivors on the day toxicity was checked, most often the fifth; without a count or a note in brackets, all were alive then.

Test system: L1210 leukemia ip in BDF1 mice, survival T/C
Assay: NCI In Vivo Anticancer Drug Screen. Data for tumor model L1210 Leukemia (intraperitoneal) in B6D2F1 (BDF1) mice
Settings: T/C endpoint: mean survival time, higher T/C = longer survival

Row | SMILES | survivor count (dose: 100.0 mg/kg/injection, schedule: Q04DX003 (ip), vehicle: saline with Tween-80) | survivor count (dose: 200.0 mg/kg/injection, schedule: Q04DX003 (ip), vehicle: saline with Tween-80) | survivor count (dose: 400.0 mg/kg/injection, schedule: Q04DX003 (ip), vehicle: saline with Tween-80) | T/C (dose: 25.0 mg/kg/injection, schedule: Q01DX009 (ip), vehicle: saline) | T/C (dose: 42.0 mg/kg/injection, schedule: Q01DX009 (ip), vehicle: saline) | T/C (dose: 50.0 mg/kg/injection, schedule: Q01DX009 (ip), vehicle: saline) | T/C (dose: 72.0 mg/kg/injection, schedule: Q01DX009 (ip), vehicle: saline) | survivor count (dose: 100.0 mg/kg/injection, schedule: Q01DX009 (ip), vehicle: saline) | T/C (dose: 120.0 mg/kg/injection, schedule: Q01DX009 (ip), vehicle: saline) | survivor count (dose: 176.0 mg/kg/injection, schedule: Q04DX003 (ip), vehicle: saline) | T/C (dose: 178.0 mg/kg/injection, schedule: Q04DX003 (ip), vehicle: saline) | survivor count (dose: 200.0 mg/kg/injection, schedule: Q01DX009 (ip), vehicle: saline) | survivor count (dose: 264.0 mg/kg/injection, schedule: Q04DX003 (ip), vehicle: saline) | survivor count (dose: 266.0 mg/kg/injection, schedule: Q04DX003 (ip), vehicle: saline) | survivor count (dose: 400.0 mg/kg/injection, schedule: Q04DX003 (ip), vehicle: saline) | survivor count (dose: 600.0 mg/kg/injection, schedule: Q04DX003 (ip), vehicle: saline)
1 | C[N+](C)(C)c1ccccc1.F[P-](F)(F)(F)(F)F | 0 of 6 | 1 of 6 | 0 of 6 |  |  |  |  |  |  |  |  |  |  |  |  | 
2 | CCOC(=O)C(CCSC)NC(=O)OCCNCCCl (stereo unspecified) |  |  |  | 111 % of control [5 of 6 alive] | 113 % of control | 129 % of control | 115 % of control | 4 of 6 | 118 % of control | 2 of 6 | 90 % of control | 0 of 6 | 0 of 6 | 1 of 6 | 0 of 6 | 0 of 6
